Our source for the binding values is article PMC5686942.

Protein sequences, listed by entry. Tags and fused reporters are not part of them.
UniProt Q01860: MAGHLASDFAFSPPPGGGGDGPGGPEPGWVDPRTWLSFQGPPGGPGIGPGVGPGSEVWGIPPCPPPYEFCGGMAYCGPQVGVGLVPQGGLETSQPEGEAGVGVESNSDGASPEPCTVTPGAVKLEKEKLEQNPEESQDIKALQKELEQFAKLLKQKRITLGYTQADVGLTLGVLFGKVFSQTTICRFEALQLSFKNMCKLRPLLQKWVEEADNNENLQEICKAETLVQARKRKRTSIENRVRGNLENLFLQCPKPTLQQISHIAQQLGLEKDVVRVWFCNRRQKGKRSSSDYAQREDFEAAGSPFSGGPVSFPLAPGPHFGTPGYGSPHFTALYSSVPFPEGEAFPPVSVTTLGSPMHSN

The target of the test is OCT4 (human (endogenous in 786-O / A-498 RCC cells)) (UniProt Q01860). Put plainly: co-IP; immunoprecipitation with OCT4, CBFA2T2 detected; CSCs population of RCC cells; called pull-down assay in the legend; no methods given.

These are yes or no findings as the source states them, for the method shown. In cells and extracts the contact can be indirect. Some entries that bind do so weakly or less than the wild type.

B1: CBFA2T2 (protein, UniProt O43439 1-604)
chain: MAKESGISLKEIQVLARQWKVGPEKRVPAMPGSPVEVKIQSRSSPPTMPPLPPINPGGPRPVSFTPTALSNGINHSPPTLNGAPSPPQRFSNGPASSTSSALTNQQLPATCGARQLSKLKRFLTTLQQFGNDISPEIGEKVRTLVLALVNSTVTIEEFHCKLQEATNFPLRPFVIPFLKANLPLLQRELLHCARAAKQTPSQYLAQHEHLLLNTSIASPADSSELLMEVHGNGKRPSPERREENSFDRDTIAPEPPAKRVCTISPAPRHSPALTVPLMNPGGQFHPTPPPLQHYTLEDIATSHLYREPNKMLEHREVRDRHHSLGLNGGYQDELVDHRLTEREWADEWKHLDHALNCIMEMVEKTRRSMAVLRRCQESDREELNYWKRRYNENTELRKTGTELVSRQHSPGSADSLSNDSQREFNSRPGTGYVPVEFWKKTEEAVNKVKIQAMSEVQKAVAEAEQKAFEVIATERARMEQTIADVKRQAAEDAFLVINEQEESTENCWNCGRKASETCSGCNIARYCGSFCQHKDWERHHRLCGQNLHGQSPHGQGRPLLPVGRGSSARSADCSVPSPALDKTSATTSRSSTPASVTAIDTNGL
As to B1, the binding result is reported as “binds”.
